# Laboratory results published in the supplement of paper PMC12009310.
# Structures can show the parent of a compound that is named as a salt. ± gives the standard deviation of the averaged measurements. Some of the results follow. Part of the spread comes from offsets between plates or batches.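 The cells are a mouse kidney inner medullary collecting duct line, silenced either for the ciliary gene Rpgrip1l or with a non-targeting control siRNA.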
# Test system: mIMCD3
# Assay: robust z score of cell number vs plate controls; higher = more cells (less cytotoxic)
# Conditions: 10 µM; 48 h; siRNA: siScr
row,Structure (SMILES),robust z score of cell number
1,COc1ccc(C2CC(c3c(O)cc(C)oc3=O)=NCCS2)c(OC)c1 (stereo not drawn),-12.9 ± 12
2,CC1(C)C[C@@H]1C(=O)N/C(=C\CCCCSC[C@H](N)C(=O)O)C(=O)O [Cilastatin sodium],0.97 ± 2.1
3,O=C(O)CCc1ccc(NCc2cccc(Oc3ccccc3)c2)cc1,-54.6 ± 53
4,COc1ccccc1N1CCN(CCN2C(=O)CC3(CCCC3)CC2=O)CC1 [BMY 7378 dihydrochloride],-4.35 ± 1.8
5,CS(=O)(=O)CCNCc1nc(-c2ccc3ncnc(Nc4ccc(OCc5cccc(F)c5)c(Cl)c4)c3c2)cs1,-141 ± 130
6,C[C@@]1(O)[C@H](O)[C@@H](CO)O[C@H]1n1cnc2c(NC3CCCC3)nc(Cl)nc21,-3.04 ± 1.7
7,CN/C(=N\c1ccc(C2=NNC(=O)CC2C)cc1)NC#N (stereo not drawn) [Siguazodan],-0.505 ± 2.8
8,COc1ccc(CCN(C)CCCOc2ccc(S(=O)(=O)c3c(C(C)C)c4ccccc4n3C)cc2)cc1OC,-28.2 ± 22
9,C[N+](C)(C)CC[N+]1(C)Cc2c(Cl)c(Cl)c(Cl)c(Cl)c2C1 [Chlorisondamine diiodide],0.997 ± 0.072
10,CCCCc1nc2ccn(Cc3cccs3)c(=O)c2n1Cc1ccc(-c2ccccc2-c2nn[nH]n2)cc1,-0.505 ± 2.3
11,CC(C)[C@H](CO)Nc1nc(Nc2cc(N)cc(Cl)c2)c2ncn(C(C)C)c2n1 [Aminopurvalanol A],-51.5 ± 28
12,Cn1cc(C2=C(c3ccc(Cl)cc3Cl)C(=O)NC2=O)c2ccccc21,-11.4 ± 9.1
13,COc1cc2nc(N3CCN(C(=O)C4CCCO4)CC3)nc(N)c2cc1OC (stereo not drawn) [Terazosin hydrochloride],2.97 ± 4.3
14,"CCCC(=O)Nc1ncnc2c1ncn2[C@@H]1O[C@@H]2COP(=O)(O)O[C@H]2[C@H]1OC(=O)CCC [Dibutyryl-cAMP, sodium salt]",-1.23 ± 0.89
15,CCCCCCCCCCC[C@@H](C[C@@H]1OC(=O)[C@H]1CCCCCC)OC(=O)[C@H](CC(C)C)NC=O [Orlistat],-13.6 ± 12
16,Cc1nn(C)c2nc(NNC(=O)Nc3cc(Cl)nc(Cl)c3)cc(C(C)C)c12,-25.9 ± 4.3
17,Cc1cc(F)c(Nc2ncnc3cc(OCc4ccccc4)ccc23)cc1O,-144 ± 110
18,Cc1cc(C(=O)O)sc1C(N)C(=O)O (stereo not drawn),-2.82 ± 4.3
19,CN1CCC(=C2c3ccccc3CC(=O)c3sccc32)CC1 [Ketotifen fumarate],-1.67 ± 1.1

row,Structure (SMILES),robust z score of cell number
1,C[C@@H](N)[C@H]1CC[C@H](C(=O)Nc2ccncc2)CC1,-22.3 ± 31
2,CCCCC#Cc1nc(NC)c2ncn([C@@H]3O[C@H](CO)[C@@H](O)[C@H]3O)c2n1,4.538 ± 0.019
3,CC(C)C1C2CCC(C2)C1N (stereo not drawn),-2.23 ± 6.3
4,Cc1ccc(Sc2cncc3sc(C(N)=O)cc23)cc1,-66.5 ± 57
5,CCN(CC)CCCCNc1ncc2cc(-c3c(Cl)cccc3Cl)c(NC(=O)NC(C)(C)C)nc2n1,-51.7 ± 1.6
6,O=S(=O)(NCCNC/C=C/c1ccc(Br)cc1)c1cccc2cnccc12 [H 89 dihydrochloride],-10.8 ± 7.6
7,CC1(C)O[C@@H]2[C@@H](CO[C@@]3(COS(N)(=O)=O)OC(C)(C)O[C@@H]23)O1 [Topiramate],1.2 ± 1.2
8,OCc1cc(C(O)CNCCCCCCOCCCCc2ccccc2)ccc1O (stereo not drawn) [Salmeterol],-20.1 ± 8.7
9,COc1ccc(CC(=O)NC(/N=C(\NC#N)Nc2cccc3ncccc23)C(C)(C)C)cc1OC (stereo not drawn),-7.44 ± 7
10,COc1cc(C(=O)OCCCN2CCCN(CCCOC(=O)c3cc(OC)c(OC)c(OC)c3)CC2)cc(OC)c1OC [Dilazep dihydrochloride],-48.7 ± 34
11,Cc1c(C(=O)NC2CCCCC2)sc2nc3ccc(N)cc3n12,-8.73 ± 1.2
12,"OCCNCCCOc1cccc(Cl)c1Cl [2,3-DCPE hydrochloride]",-18.7 ± 18
13,c1ccc(-c2n[nH]c3c2oc2ccccc23)cc1,-19.3 ± 21
14,NC(=O)OCC(COC(N)=O)c1ccccc1 [Felbamate],-0.764 ± 1.3
15,CCc1nn(CCCN2CCN(c3cccc(Cl)c3)CC2)c(=O)n1CCOc1ccccc1 [Nefazodone hydrochloride],-7.66 ± 3.1
16,CC(C)(CO)Cc1cc(C(C)(C)C)c(O)c(C(C)(C)C)c1,-0.631 ± 8.9
17,NC(N)=Nc1ccc(Cl)cc1 [4-Chlorophenylguanidine hydrochloride],-0.0848 ± 0.35
18,"Nc1ncnc2c1nc(Br)n2[C@@H]1O[C@@H]2COP(=O)(O)O[C@H]2[C@H]1O [8-Bromo-cAMP, sodium salt]",-1 ± 0.46
19,CC(C)c1onc(-c2c(Cl)cccc2Cl)c1COc1ccc(/C=C/c2cccc(C(=O)O)c2)c(Cl)c1,-139 ± 100

# Laid out differently: results already given
row | Structure (SMILES) | robust z score of cell number
2 | CCCCC#Cc1nc(NC)c2ncn([C@@H]3O[C@H](CO)[C@@H](O)[C@H]3O)c2n1 | 4.538 ± 0.019
3 | CC(C)C1C2CCC(C2)C1N (stereo not drawn) | -2.23 ± 6.3
4 | Cc1ccc(Sc2cncc3sc(C(N)=O)cc23)cc1 | -66.5 ± 57
